Values from PubChem BioAssay AID504804 (Drosophila RNAi Screening Center, 2011).
In all, the deposit lists about 19,000 reagents; below is an unselected part of those that have a named target and a result. Of all reagents, 47 (0.25%) were called active. 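Signals are raw, not normalised; exact z-scores behind calls not deposited; actives needed confirmation, so some wells reaching 2 SD are inactive.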 No sequences are given here.

Purpose: 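Fly genes whose loss lessens doxorubicin-driven cell death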 (primary screen)
System: Drosophila Kc cells
Reagents: long dsRNA against Drosophila genes, 0.5 µg dsRNA per well
Timing: 96 h (48 h knock-down, then 48 h drug)
Conditions: doxorubicin 5 µg/ml for 48 h, added 48 h after dsRNA
Read-out: 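Luminescent ATP counts per replicate, not normalised, reflecting viable cells after 48 h dsRNA knock-down followed by 48 h of 5 µg/ml doxorubicin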
Scale: raw ATP luminescence: higher = more viable cells, protection from doxorubicin
Rule for the call: 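Active when both duplicate wells lie at least 2 SD above the plate mean and protection is confirmed by rescreening and independent dsRNAs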

{"predicted target": "DNAlig3", "amplicon": "DRSC15201", "raw ATP luminescence, replicate 1": 64450, "raw ATP luminescence, replicate 2": 57627, "activity call": "inactive"}
{"predicted target": "klhl10", "amplicon": "DRSC05274", "raw ATP luminescence, replicate 1": 65073, "raw ATP luminescence, replicate 2": 82190, "activity call": "inactive"}
{"predicted target": "klhl10", "amplicon": "DRSC19171", "raw ATP luminescence, replicate 1": 2.81e5, "raw ATP luminescence, replicate 2": 2.71e5, "activity call": "inactive"}
{"predicted target": "klhl10", "amplicon": "DRSC20750", "raw ATP luminescence, replicate 1": 3.16e5, "raw ATP luminescence, replicate 2": 3.18e5, "activity call": "inactive"}
{"predicted target": "klhl10", "amplicon": "DRSC20925", "raw ATP luminescence, replicate 1": 2.08e5, "raw ATP luminescence, replicate 2": 1.78e5, "activity call": "inactive"}
{"predicted target": "Mco4", "amplicon": "DRSC20061", "raw ATP luminescence, replicate 1": 3.57e5, "raw ATP luminescence, replicate 2": 3.61e5, "activity call": "inactive"}
{"predicted target": "stau", "amplicon": "DRSC07698", "raw ATP luminescence, replicate 1": 68277, "raw ATP luminescence, replicate 2": 60130, "activity call": "inactive"}
{"predicted target": "fd3F (retired record)", "amplicon": "DRSC17843", "raw ATP luminescence, replicate 1": 18240, "raw ATP luminescence, replicate 2": 17300, "activity call": "inactive"}

Continued, starting with the last 3 of the part before.
{"predicted target": "Mco4", "amplicon": "DRSC20061", "raw ATP luminescence, replicate 1": 3.57e5, "raw ATP luminescence, replicate 2": 3.61e5, "activity call": "inactive"}
{"predicted target": "stau", "amplicon": "DRSC07698", "raw ATP luminescence, replicate 1": 68277, "raw ATP luminescence, replicate 2": 60130, "activity call": "inactive"}
{"predicted target": "fd3F (retired record)", "amplicon": "DRSC17843", "raw ATP luminescence, replicate 1": 18240, "raw ATP luminescence, replicate 2": 17300, "activity call": "inactive"}
{"predicted target": "Spn43Ad", "amplicon": "DRSC06770", "raw ATP luminescence, replicate 1": 64567, "raw ATP luminescence, replicate 2": 82640, "activity call": "inactive"}
{"predicted target": "Acsx1L", "amplicon": "DRSC16014", "raw ATP luminescence, replicate 1": 47610, "raw ATP luminescence, replicate 2": 39710, "activity call": "inactive"}
{"predicted target": "mRpL50", "amplicon": "DRSC11015", "raw ATP luminescence, replicate 1": 34033, "raw ATP luminescence, replicate 2": 40590, "activity call": "inactive"}
{"predicted target": "Ras85D", "amplicon": "DRSC16814", "raw ATP luminescence, replicate 1": 49250, "raw ATP luminescence, replicate 2": 46463, "activity call": "inactive"}
{"predicted target": "pain", "amplicon": "DRSC04273", "raw ATP luminescence, replicate 1": 31710, "raw ATP luminescence, replicate 2": 52160, "activity call": "inactive"}
{"predicted target": "caup", "amplicon": "DRSC11334", "raw ATP luminescence, replicate 1": 50197, "raw ATP luminescence, replicate 2": 39910, "activity call": "inactive"}
{"predicted target": "Or45b", "amplicon": "DRSC07488", "raw ATP luminescence, replicate 1": 33090, "raw ATP luminescence, replicate 2": 69653, "activity call": "inactive"}
{"predicted target": "CG8119", "amplicon": "DRSC20083", "raw ATP luminescence, replicate 1": 3.19e5, "raw ATP luminescence, replicate 2": 2.96e5, "activity call": "inactive"}
{"predicted target": "CG4658", "amplicon": "DRSC02768", "raw ATP luminescence, replicate 1": 39017, "raw ATP luminescence, replicate 2": 53193, "activity call": "inactive"}
{"predicted target": "ed", "amplicon": "DRSC00350", "raw ATP luminescence, replicate 1": 76500, "raw ATP luminescence, replicate 2": 72920, "activity call": "inactive"}
{"predicted target": "ed", "amplicon": "DRSC00438", "raw ATP luminescence, replicate 1": 22107, "raw ATP luminescence, replicate 2": 28733, "activity call": "inactive"}
{"predicted target": "ed", "amplicon": "DRSC00439", "raw ATP luminescence, replicate 1": 26967, "raw ATP luminescence, replicate 2": 30120, "activity call": "inactive"}
{"predicted target": "ed", "amplicon": "DRSC00478", "raw ATP luminescence, replicate 1": 22700, "raw ATP luminescence, replicate 2": 23863, "activity call": "inactive"}
